Earlier results as cited in patent US8039514B2, “Sulfonamide compounds and use thereof” (Asahi Kasei Pharma Corporation, priority 2008, dated 2011).

Conditions: PTH 20 μg subcutaneous everyday; ALN 10 mg oral everyday; cited from earlier work

Compound: NCCCC(O)(P(=O)(O)O)P(=O)(O)O [ALN, alendronate]
- increase of bone mineral density of lumbar spine 18 months after the administration: 5.5%
